Measurements taken from publication PMC12040169 (PLOS Biology, 2025).
The other results are listed elsewhere or left out.

test system: T1, CTL2-GFP (C. trachomatis L2/434/Bu, GFP-expressing); parameters: species or system HeLa; Intracellular C. trachomatis growth in HeLa cells, bulk GFP fluorescence relative to DMSO; details: bulk GFP, single well; 28.5 h, 10 µM; inhibitor
T1 construct: L2/434/Bu, GFP-expressing

Structure (SMILES)	% of control remaining
CC(=O)Nc1c(Nc2ccccc2)c2ccccc2oc1=O [CBK261756]	114.154%
CCC1CCCCN1C(=O)c1oc2ccccc2c1C (stereo not drawn) [CBK078548]	133.724%
C=CCN1C(=O)CC2(C1=O)C(=O)N(CCn1cnc3c1c(=O)n(C)c(=O)n3C)c1ccc(Cl)cc12 (stereo not drawn) [CBK075410]	163.695%
COCCn1nnnc1C(c1cc2cc(C)ccc2[nH]c1=O)N1CCN(C(=O)c2ccco2)CC1 (stereo not drawn) [CBK111562]	132.17%
CCN(Cc1ccc(C#N)cc1F)C(=O)Nc1cc(C)nn1C [CBK305730]	95.3609%
O=C(O)c1cnc(-c2ccccc2)nc1 [CBK261272]	89.8047%
O=C(NCc1ccccc1)NC(=O)C1CCN(CCCOc2cccc3ccccc23)CC1 [CBK034856]	97.0168%
O=[N+]([O-])c1cccnc1Oc1cccc(Cl)c1Cl [CBK002596]	112.831%
Cn1cccc1C(=O)N1CCC(Cc2ccccc2)CC1 [CBK200182]	85.7601%
c1ccc2c(c1)/C(=N/OCCN1CCCC1)CC21CCCCC1 [CBK013322]	139.161%
COc1ccc(-c2onc(C)c2-c2cnn(-c3ccccc3)c2)c(O)c1 [CBK296095]	111.84%
Cc1ccc(CCC(=O)N2CCNCC2C)c(C)c1 (stereo not drawn) [CBK304481]	152.271%
O=C1c2ccccc2-c2onc3c(NCc4ccccc4)cc(Nc4ccccc4)c1c23 [CBK261979]	95.7136%
O=C(NC1Cc2ccccc2C1)c1cnccc1C(F)(F)F [CBK200353]	119.383%
O=C(O)CC(C(=O)O)c1ccc(F)cc1 (stereo not drawn) [CBK268531]	125.071%
Cc1ccc(C(=O)NCCC(=O)Nc2ccccn2)cc1NC(=O)c1ccco1 [CBK298328]	152.743%
CCC1CCCCN1C(=O)c1cc(C)oc1C (stereo not drawn) [CBK089358]	51.0191%
COc1ccccc1N(CC(O)Cn1nc(C)cc1C)S(=O)(=O)c1ccccc1 (stereo not drawn) [CBK264546]	115.387%
O=C(CSc1nnc(-c2ccncc2)s1)Nc1ccc(Cl)cc1 [CBK270069]	115.112%
CN(C)CCN1CCN(c2cncc(-c3cccc(C(=O)O)c3)n2)CC1 [CBK065443]	186.216%
CCc1cc(Br)ccc1S(=O)(=O)NC(CC)COC (stereo not drawn) [CBK045265]	49.3231%
Fc1ccc(OCc2ccc(-c3nnn[nH]3)cc2)cc1 [CBK267859]	99.6788%
CS(=O)(=O)Nc1ccc(C(=O)Nc2ccc(S(=O)(=O)N3CCCCCC3)cc2)cc1 [CBK268288]	78.0512%
O=C([C@@H]1C[C@@H]2C=C[C@H]1C2)N1CCC(c2noc3cc(F)ccc23)CC1 [CBK281542]	136.291%
CN(C)Cc1ccc2nc(C(F)(F)F)cc(SCCC(=O)O)c2c1 [CBK149715T]	96.638%
COc1cc(-c2cn3ccnc3c(N(C)CCN(C)C)n2)cc(OC)c1OC [CBK066196]	139.905%

Structure (SMILES)	% of control remaining
Cc1csc(C(Cc2ccsc2)NC(=O)C2CCCO2)n1 (stereo not drawn) [CBK285122]	78.7415%
CS(=O)(=O)c1ccc(-c2cnc3[nH]c(=O)n(Cc4cccs4)c3n2)cc1 [CBK064383]	147.407%
Cc1ccccc1C1NC(=O)NC2=C1C(=O)N(C)C2 (stereo not drawn) [CBK288026]	124.264%
Cc1cc(C2CCCCCN2C(=O)c2cc(C3CC3)on2)on1 (stereo not drawn) [CBK285414]	115.181%
CCn1c(C)nnc1CN(CC1CCCO1)C1CCCC1 (stereo not drawn) [CBK304181]	126.978%
O=C(Nc1cncc(OC2CCNCC2)n1)c1cnccn1 [CBK036372T]	123.559%
FC(F)(F)c1cccc(-c2nccnc2NCc2ccc3c(c2)OCO3)c1 [CBK037350]	156.324%
Cc1nnc2ccc(N3CCN(Cc4cscn4)CC3)nn12 [CBK304910]	113.365%
O=C(O)c1cc(Cl)c(OCc2cc(-c3ccccc3)no2)c(Cl)c1 [CBK295297]	151.233%
Cn1c(=O)c2[nH]c(-c3ccc(OCC(=O)NCCc4ccccc4)cc3)nc2n(C)c1=O [CBK269092]	118.322%
CC(=O)c1ccc(NC(=O)CSc2nc(O)cc(-c3ccccc3)n2)cc1 [CBK269048]	128.099%
O=C(Nc1cccc(N2CCCC2=O)c1)c1ccccc1Nc1ccccc1 [CBK297729]	123.568%
COCCN1CCn2c(nc3cc(NC(=O)c4cccc([N+](=O)[O-])c4)ccc32)C1 [CBK267965]	112.414%
COc1ccc(C2NC(C(=O)O)CS2)cc1CN1C[C@@H]2C[C@H](C1)c1cccc(=O)n1C2 (stereo partly drawn) [CBK020798]	119.998%
CN1CCC(C(=O)NC(=O)Nc2ccccc2F)CC1 [CBK034827]	144.794%
COc1cccc(CN2CCOC3(CCN(C(=O)OCc4ccccc4)CC3)C2)c1 [CBK161098T]	120.044%
CC(C)(C)COC(=O)N1CCC(N2CCOc3ccc(-c4ccc(S(C)(=O)=O)cc4)cc3C2)CC1 [CBK169264]	111.136%
COC(=O)C1(Cc2ccccc2-c2ccncc2)CCNC1 (stereo not drawn) [CBK281435]	121.358%
CCCCCCOC(=O)c1ccc2c(c1)C(=O)N(c1cccc(N)c1)C2=O [CBK157034]	121.875%
CCCSc1nnc(-c2c(Cl)c(CC)nn2C)s1 [CBK026135]	155.774%
NS(=O)(=O)c1ccc2c(c1)N(Cc1nc(-c3ccco3)no1)CC2 [CBK304291]	126.442%
Cc1cccc(C)c1NC(=O)CSc1nnc(C(O)c2ccccc2)n1C (stereo not drawn) [CBK269742]	109.892%
O=C(CSc1nnc(-c2ccco2)n1-c1ccccc1)NCc1ccc2c(c1)OCO2 [CBK267308]	143.321%
COc1ccc(F)c(CNCCNC(=O)OC(C)(C)C)c1 [CBK056699]	161.474%
CC(C)(C)c1cc(NC(=O)C(C)(C)S(=O)(=O)c2ccc(C(F)(F)F)cn2)no1 [CBK006849]	101.512%
Cc1cc(C(=O)N2CCCCCC2c2nn(C)cc2Cl)on1 (stereo not drawn) [CBK285121]	124.238%

Gathered by group: the compounds so far containing fluorine (10)
Structure (SMILES)	% of control remaining
CCN(Cc1ccc(C#N)cc1F)C(=O)Nc1cc(C)nn1C [CBK305730]	95.3609%
O=C(NC1Cc2ccccc2C1)c1cnccc1C(F)(F)F [CBK200353]	119.383%
O=C(O)CC(C(=O)O)c1ccc(F)cc1 (stereo not drawn) [CBK268531]	125.071%
Fc1ccc(OCc2ccc(-c3nnn[nH]3)cc2)cc1 [CBK267859]	99.6788%
O=C([C@@H]1C[C@@H]2C=C[C@H]1C2)N1CCC(c2noc3cc(F)ccc23)CC1 [CBK281542]	136.291%
CN(C)Cc1ccc2nc(C(F)(F)F)cc(SCCC(=O)O)c2c1 [CBK149715T]	96.638%
FC(F)(F)c1cccc(-c2nccnc2NCc2ccc3c(c2)OCO3)c1 [CBK037350]	156.324%
CN1CCC(C(=O)NC(=O)Nc2ccccc2F)CC1 [CBK034827]	144.794%
COc1ccc(F)c(CNCCNC(=O)OC(C)(C)C)c1 [CBK056699]	161.474%
CC(C)(C)c1cc(NC(=O)C(C)(C)S(=O)(=O)c2ccc(C(F)(F)F)cn2)no1 [CBK006849]	101.512%

Rewritten in markdown: part of the list above

| Structure (SMILES) | % of control remaining |
| --- | --- |
| Cc1nnc2ccc(N3CCN(Cc4cscn4)CC3)nn12 [CBK304910] | 113.365% |
| Cc1cccc(C)c1NC(=O)CSc1nnc(C(O)c2ccccc2)n1C (stereo not drawn) [CBK269742] | 109.892% |

(listing goes on)

Structure (SMILES)	% of control remaining
COc1ccc(C(=O)Nc2ccc(N3CCOCC3)c(Cl)c2)cc1[N+](=O)[O-] [CBK263894]	110.726%
O=C(OCc1ccc(Br)cc1)c1ccccc1S(=O)(=O)c1ccccc1[N+](=O)[O-] [CBK265718]	156.123%
O=C(O)CCC(=O)Nc1ccccc1C(=O)N1CCCCCC1 [CBK269863]	142.723%
CN(C)CCN1CCN(c2nc(-c3cccc(C(N)=O)c3)cnc2N)CC1 [CBK063537]	96.6676%
Cc1cc(CNC(=O)COc2cc(Cl)ccc2Cl)c2ccccc2n1 [CBK269788]	119.814%
CC(C)(C)c1ccnc(N[C@H]2CO[C@H]3[C@@H]2OC[C@@H]3NC(=O)c2cccs2)n1 [CBK289520]	115.952%
N=C(N)NS(=O)(=O)c1ccc(N/C=C\C(=O)c2ccc3ccccc3c2)cc1 [CBK263374]	49.3534%
N=C(Nc1nc(=O)cc(CSc2ccc(Cl)cc2)[nH]1)Nc1cccc2ccccc12 [CBK266504]	167.481%
CC(=O)Nc1ccc(-n2cc(COC3CCN(C(=O)OC(C)(C)C)CC3)nn2)cc1 [CBK149481]	114.081%
CCc1nc2c(Oc3nc4ccccc4s3)cccn2c1N(C=O)Cc1ccc(OC)cc1 [CBK147819]	106.388%
O=C(O)CNC(=O)Cn1ccc2cc(OCc3ccccc3)ccc21 [CBK286665]	135.411%
CCn1cc(C(=O)NC2CC3(CCCC3)Oc3ccccc32)c(C)n1 (stereo not drawn) [CBK282340]	117.705%
COc1ccc(C)c(NC(=O)NCCc2c[nH]cn2)c1 [CBK269992]	137.658%
Cc1nc2c(c(N(C)C)n1)CCN(C(=O)c1cnn(C(C)C)c1)C2 [CBK307083]	109.876%
COc1ccc(C2N(N3C(=O)CC(=O)NC3=O)C(=O)CS2(=O)=O)cc1OC (stereo not drawn) [CBK012702]	74.4732%
CC(CCc1ccccc1)NC(=O)CCC(=O)O (stereo not drawn) [CBK267918]	129.769%
CN(Cc1ccccc1NCCn1c(=O)oc2ccccc21)C1CCCCC1 [CBK296678]	104.664%
O=C(COc1cc(Cl)c(Cl)cc1Cl)N1CCN(c2ccc([N+](=O)[O-])cc2)CC1 [CBK263783]	100%
O=c1c2ccccc2nc(CSc2ncnc3[nH]cnc23)n1-c1cccc(C(F)(F)F)c1 [CBK264991]	100%
Cc1nnc(-c2cccc(S(=O)(=O)n3ccn(-c4cccc(C(F)(F)F)c4)c3=O)c2)o1 [CBK106592]	160.322%
C=CCn1c(Cc2csc(NC(=O)c3cc4ccccc4o3)n2)n[nH]c1=S [CBK295329]	173.083%
O=C(NC1Cc2ccccc2C1)c1ccc2ccccc2n1 [CBK200355]	123.177%
C=C(C)CN1CCN(C(C(=O)O)c2c[nH]c3cc(F)ccc23)CC1 (stereo not drawn) [CBK286835]	125.602%
Cc1ccc(C2(CNC(=O)CCc3ccncc3)CCOCC2)cc1 [CBK281574]	109.886%
Cc1cc(CN2CCN(CCc3ccccc3)CC2)no1 [CBK126426]	125.883%
O=C(O)c1ccc(CSc2nnc(-c3ccncc3)o2)cc1 [CBK266352]	201.785%
